Assay results taken from the supplement of paper PMC8007513.
This is one part of the list. Many values rest on one well or one pass, so single values are uncertain.

tested on: Saccharomyces cerevisiae BY4743; experiment: growth (OD600) with compound + IPBC relative to untreated control; higher = less growth inhibition; details: compound concentration: 133 uM; IPBC concentration: 0.5 ug/ml; 20 h
Protocol: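 NMCCC compounds (133 uM) combined with IPBC (0.5 ug/ml) against Saccharomyces cerevisiae BY4743 in YPD, 96-well plates. Growth was read as OD600 at 20 h and expressed as % of the untreated control. Single pass.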

| Compound | growth [%] |
| --- | --- |
| NS(=O)(=O)c1ccc(CCN2C(=O)NC(NC(=O)c3ccccc3)(C(F)(F)F)C2=O)cc1 (stereo not given) + CCCCNC(=O)OCC#CI [3-iodo-2-propynyl butylcarbamate (IPBC)] | 108 |
| CC\1(C)CC2=CC=CC=C2\C(=N1)CC(O)(C(F)(F)F)C(F)(F)F + CCCCNC(=O)OCC#CI [3-iodo-2-propynyl butylcarbamate (IPBC)] | 101 |
| Cc1noc(C)c1CCC(=O)N1CCN(CC2CCCO2)CC1 (stereo not given) + CCCCNC(=O)OCC#CI [3-iodo-2-propynyl butylcarbamate (IPBC)] | 98.9 |
| CCOC(=O)\C1=C(/COC(=O)C2=CC=CC=C2C(=O)C3=CC=CS3)NC(=O)NC1 + CCCCNC(=O)OCC#CI [3-iodo-2-propynyl butylcarbamate (IPBC)] | 103 |
| CC(C)CNC(=O)c1cc(-c2ccc(Cl)c(Cl)c2)on1 + CCCCNC(=O)OCC#CI [3-iodo-2-propynyl butylcarbamate (IPBC)] | 94.9 |
| CN(C)S(=O)(=O)c1cccc(COc2ncnc3c(Cl)cc(Cl)cc23)c1 + CCCCNC(=O)OCC#CI [3-iodo-2-propynyl butylcarbamate (IPBC)] | 99.9 |
| CC(OC(=O)\C1=N\N(C(=O)CC1)C2=CC=CC=C2)C(=O)NC3=CC=CC=C3OC(F)F (stereo not given) + CCCCNC(=O)OCC#CI [3-iodo-2-propynyl butylcarbamate (IPBC)] | 103 |
| CC(=O)c1c(C)[nH]c(C(=O)C(C)N2CCC(NS(C)(=O)=O)CC2)c1C (stereo not given) + CCCCNC(=O)OCC#CI [3-iodo-2-propynyl butylcarbamate (IPBC)] | 111 |
| CC1=CC=C(C=C1)C2(\N=C(Cl)/C(=C3/C=C\C=C/N23)C#N)C(F)(F)F (stereo not given) + CCCCNC(=O)OCC#CI [3-iodo-2-propynyl butylcarbamate (IPBC)] | 98.3 |
| CCOc1ccc(N(C)S(=O)(=O)c2ccc3c(c2)NC(=O)CC(C)S3)cc1 (stereo not given) + CCCCNC(=O)OCC#CI [3-iodo-2-propynyl butylcarbamate (IPBC)] | 96.1 |
| COc1ccc(CCNc2cc(-c3ccccc3)ncn2)cc1OC + CCCCNC(=O)OCC#CI [3-iodo-2-propynyl butylcarbamate (IPBC)] | 87.8 |
| CSc1nc(C)c(CCC(=O)OCc2ccc(C(=O)N3CCCC3)cc2)c(C)n1 + CCCCNC(=O)OCC#CI [3-iodo-2-propynyl butylcarbamate (IPBC)] | 99.9 |
| COc1cc(Br)c(CCNC(=O)c2nnc(O)c3ccccc23)cc1OC + CCCCNC(=O)OCC#CI [3-iodo-2-propynyl butylcarbamate (IPBC)] | 102 |
| CCOC(=O)C1CCN(C(=O)c2ccc(OC)c(S(=O)(=O)NC)c2)CC1 + CCCCNC(=O)OCC#CI [3-iodo-2-propynyl butylcarbamate (IPBC)] | 95.4 |
| O=C(COC(=O)c1[nH]nc2ccccc12)NC(=O)NC1CCCCC1 + CCCCNC(=O)OCC#CI [3-iodo-2-propynyl butylcarbamate (IPBC)] | 105 |
| Clc1nc(NCc2ccco2)c2[nH]cnc2n1 + CCCCNC(=O)OCC#CI [3-iodo-2-propynyl butylcarbamate (IPBC)] | 93.5 |
| CC(C)CCn1c(SC(C)C)nc2c1c(=O)[nH]c(=O)n2C + CCCCNC(=O)OCC#CI [3-iodo-2-propynyl butylcarbamate (IPBC)] | 88.5 |
| CC(=O)c1c(C)[nH]c(C(=O)OCC(=O)NCc2ccccc2Cl)c1C + CCCCNC(=O)OCC#CI [3-iodo-2-propynyl butylcarbamate (IPBC)] | 91.4 |
| CNS(=O)(=O)Cc1ccc(CNC(=O)Nc2ccccc2F)cc1 + CCCCNC(=O)OCC#CI [3-iodo-2-propynyl butylcarbamate (IPBC)] | 84.1 |
| CC1=CC=CC=C1C(=O)N(C\2C[S](=O)(=O)\C=C2)C3=CC=CC=C3 (stereo not given) + CCCCNC(=O)OCC#CI [3-iodo-2-propynyl butylcarbamate (IPBC)] | 104 |

Fetched one by one from above:

| Compound | growth [%] |
| --- | --- |
| CC(C)CCn1c(SC(C)C)nc2c1c(=O)[nH]c(=O)n2C + CCCCNC(=O)OCC#CI [3-iodo-2-propynyl butylcarbamate (IPBC)] | 88.5 |
| NS(=O)(=O)c1ccc(CCN2C(=O)NC(NC(=O)c3ccccc3)(C(F)(F)F)C2=O)cc1 (stereo not given) + CCCCNC(=O)OCC#CI [3-iodo-2-propynyl butylcarbamate (IPBC)] | 108 |
| CSc1nc(C)c(CCC(=O)OCc2ccc(C(=O)N3CCCC3)cc2)c(C)n1 + CCCCNC(=O)OCC#CI [3-iodo-2-propynyl butylcarbamate (IPBC)] | 99.9 |

(list continues)

| Compound | growth [%] |
| --- | --- |
| COC(=O)c1c(C)nn(-c2ccc(F)cc2)c1-n1cccc1 + CCCCNC(=O)OCC#CI [3-iodo-2-propynyl butylcarbamate (IPBC)] | 85 |
| Cc1nc(SCC(=O)NC(C)CCc2ccccc2)c2ccccc2n1 (stereo not given) + CCCCNC(=O)OCC#CI [3-iodo-2-propynyl butylcarbamate (IPBC)] | 84.3 |
| CCCSc1nsc(NC(=O)COC(=O)c2occc2C)n1 + CCCCNC(=O)OCC#CI [3-iodo-2-propynyl butylcarbamate (IPBC)] | 83.3 |
| Cc1ccc(-n2nc(C)c(C(=O)NCC(=O)NCc3ccco3)n2)c(C)c1 + CCCCNC(=O)OCC#CI [3-iodo-2-propynyl butylcarbamate (IPBC)] | 104 |
| O=C(Nc1ccc(Cl)c(-c2nc3cnccc3o2)c1)C(F)(F)F + CCCCNC(=O)OCC#CI [3-iodo-2-propynyl butylcarbamate (IPBC)] | 101 |
| CC(C)COc1ccccc1C(=O)Nc1ccccc1C(=O)N1CCCC1 + CCCCNC(=O)OCC#CI [3-iodo-2-propynyl butylcarbamate (IPBC)] | 91.7 |
| C[N]1N=C(C)C\2=C1C(=O)N(CC(=O)NCC3=CC=CC=C3C)\C=C2 + CCCCNC(=O)OCC#CI [3-iodo-2-propynyl butylcarbamate (IPBC)] | 79.6 |
| CC1CN(S(=O)(=O)c2cccc(C(=O)OCCc3ccccc3)c2)CC(C)O1 (stereo not given) + CCCCNC(=O)OCC#CI [3-iodo-2-propynyl butylcarbamate (IPBC)] | 89.9 |
| CCOC(=O)c1c(-c2ccc(OC)cc2)csc1NC(=O)CN(C)CC(=O)N(C)C + CCCCNC(=O)OCC#CI [3-iodo-2-propynyl butylcarbamate (IPBC)] | 98.4 |
| CC1=CC\2=C(C=C1C)N(CC(=O)NCC3=CC=C(Cl)C=C3)C(=O)\C(=N2)C(F)(F)F + CCCCNC(=O)OCC#CI [3-iodo-2-propynyl butylcarbamate (IPBC)] | 87.7 |
| COc1cc(OC)c(NS(=O)(=O)c2ccc3c(c2)CCCC(=O)N3)cc1Cl + CCCCNC(=O)OCC#CI [3-iodo-2-propynyl butylcarbamate (IPBC)] | 106 |
| CCCc1cc(O)nc(SCC(=O)N2CCc3sccc3C2)n1 + CCCCNC(=O)OCC#CI [3-iodo-2-propynyl butylcarbamate (IPBC)] | 104 |
| CCOC(=O)N1CCN(C(=O)c2cc(OC)c(OC)cc2-n2cccc2)CC1 + CCCCNC(=O)OCC#CI [3-iodo-2-propynyl butylcarbamate (IPBC)] | 94.9 |
| CCOC(=O)c1c(S(=O)(=O)Nc2ccc(C)cn2)c(C)n(C)c1C + CCCCNC(=O)OCC#CI [3-iodo-2-propynyl butylcarbamate (IPBC)] | 106 |
| CCOc1ccccc1NC(=O)NCc1c(C)nn(CC)c1C + CCCCNC(=O)OCC#CI [3-iodo-2-propynyl butylcarbamate (IPBC)] | 88.9 |
| O=C(Cc1csc(NC(=O)NC2CCCC2)n1)Nc1ccc(Cl)c(Cl)c1 + CCCCNC(=O)OCC#CI [3-iodo-2-propynyl butylcarbamate (IPBC)] | 112 |
| Cc1noc(C)c1CSCC(=O)NC1CCN(Cc2ccccn2)CC1 + CCCCNC(=O)OCC#CI [3-iodo-2-propynyl butylcarbamate (IPBC)] | 95.7 |
| Cc1c(CCO)c(O)oc2nnc(-c3ccccc3)c1-2 + CCCCNC(=O)OCC#CI [3-iodo-2-propynyl butylcarbamate (IPBC)] | 85.5 |
| CCN(CCN(C)C)C(=O)c1cc2c(s1)-c1ccc(Cl)cc1S(=O)(=O)C2 + CCCCNC(=O)OCC#CI [3-iodo-2-propynyl butylcarbamate (IPBC)] | 106 |
| CC(NC(=O)CSc1ncc(-c2ccccc2)nn1)c1ccccc1 (stereo not given) + CCCCNC(=O)OCC#CI [3-iodo-2-propynyl butylcarbamate (IPBC)] | 69.2 |
